Data published in patent publication US20100055034A1 (DOMPE PHA MA S P A, published 2010).
No constants are given. Whether binding was seen depends on the method and setting. Some entries that bind do so weakly or less than the wild type.

Chains of the proteins cited; added tags and fusions are not shown. Lines headed by an entry give the natural chain unless they say otherwise; changes in a name come on top.
UniProt P15328: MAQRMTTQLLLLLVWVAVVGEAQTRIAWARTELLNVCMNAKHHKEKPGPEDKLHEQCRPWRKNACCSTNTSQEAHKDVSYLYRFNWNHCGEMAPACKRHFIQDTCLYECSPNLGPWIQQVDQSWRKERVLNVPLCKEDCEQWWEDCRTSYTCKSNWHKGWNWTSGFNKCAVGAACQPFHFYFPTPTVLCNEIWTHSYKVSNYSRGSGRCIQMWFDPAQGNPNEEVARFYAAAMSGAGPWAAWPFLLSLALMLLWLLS

Target: human folate receptor alpha as expressed on cells (human) (UniProt P15328)
Test: cell ELISA on fixed A431-FR, OVCAR3 and IGROV1 cells, F(ab')2

binding: binds
B1: AFRA F(ab')2 natural dimer (other)
light: EIVLTQSPASLAVSPGQRATITCRASESVSFLGINLIHWYQQKPGQPPKLLIYQASNKDTGVPARFSGSGSGTDFTLTINPVEANDTANYYCLQSKNFPPYTFGQGTKLEIKRTVAAPSVFIFPPSDEQLKSGTASVVCLLNNFYPREAKVQWKVDNALQSGNSQESVTEQDSKDSTYSLSSTLTLSKADYEKHKVYACEVTHQGLSSPVTKSFNRGEC
heavy: NVQLVESGGGLVQPGRSLRLSCTTSGFTFGDYAMIWARQAPGKGLEWVSSISSSSSYIYYADSVKGRFTISRDNAKNSLYLQMNSLRAEDTAVYYCARERYDFWSGMDVWGKGTTVTVSSASTKGPSVFPLAPSSKSTSGGTAALGCLVKDYFPEPVTVSWNSGALTSGVHTFPAVLQSSGLYSLSSVVTVPSSSLGTQTYICNVNHKPSNTKVDKKDKTSC
modifications: C-terminal hinge cysteine disulfide-bonded to the second Fab'
notes: F(ab')2 made by natural oxidation of Fab'; By SDS-PAGE the preparation is 80% L2H2 dimer, 16% L2H and 4% free heavy chain; For Q1N see the note of m1; also called F(ab')2-AFRA; AFRA dimer
